Reference: patent US7592436B2, “Gene encoding a protein having aurone synthesis activity” (International Flower Developments Proprietary Limited, priority 1998, dated 2009)
Some entries share one result that the patent states for a list of compounds. At least one compound was matched to its structure with a doubt left.

Tested on: aurone synthase
Assay: Measurement of aurone synthase activity (HPLC)
Type: biochemical, snapdragon
Conditions: purified aurone synthase, in the presence of 1 mM ion
Method: The reaction was started by adding 5 μl of THC, having an absorbance of 462 at 366 nm in ethanol, to 50 μl of 1 M sodium acetate buffer (pH 5.0) and 350 μl of crude enzyme solution diluted with water. After allowing to react for 1 hour at 30° C., and adding 100 μl of an aqueous solution of 90% (v/v) acetonitrile containing 1% (v/v) TFA to stop the reaction, activity was measured by HPLC. The crude enzyme solution in each purification step described later in Example 4 was measured.
The YMC J'Sphere ODS M80 column (4.6×150 mm) was used and the flow rate was set at 0.7 ml/min. Using a 0.1% aqueous solution of TFA as solvent A, and a 90% aqueous solution of acetonitrile containing 0.1% TFA as solvent B, a sample was injected into the column, after which the ratio of A:B was held at 7:3 for first 3 minutes, and then changed to 6:4 by a linear concentration gradient for next 10 minutes. This concentration was maintained for 5 minutes. After changing the ratio of A:B to 7:3 for next one minute, this concentration was maintained for 5 minutes.

Structure (SMILES)	Enzyme activity inhibited [%]
[Cu+2] [bivalent copper ion]	≥ 90
[Cu+] [monovalent copper ion]	≥ 90
